Measured data: PubChem BioAssay AID1259405 (NCATS, 2018)
In all, the deposit lists about 50,000 reagents; below is a part drawn at random. Of all reagents, about 4,000 (8%) were called active. 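Mouse siRNA library applied to hamster cells; one well for each siRNA.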 Unmarked entries are inactive. Reagent sequences are not shown.

Purpose: 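Silenced genes that increase secreted GFP made by CHO cells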 (primary screen)
Cell system: Chinese hamster CHO-K1 ovary cells with stable secreted eGFP expression
Reagents: single siRNA against mouse genes, 0.8 pmol siRNA per well (2 µl of 400 nM stock)
Duration: 3 days
Detection: 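Percent of the per-plate non-targeting control median for intracellular GFP per well by laser scanning cytometry and for cell viability by ATP luminescence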
Scale: GFP, % of control: higher = more GFP per well, higher productivity; viability (ATP), % of control: higher = more viable cells (more ATP)
Rule for the call: 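a knock-down is called active if GFP reaches 120% or more of non-targeting control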

Snapc4 (small nuclear RNA activating complex, polypeptide 4) [SID363573784] gave GFP, % of control 101; viability (ATP), % of control 59.6. Against Snapc4 (small nuclear RNA activating complex, polypeptide 4) [SID363581528], the values are GFP, % of control 75.5; viability (ATP), % of control 72.9. For Snapc4 (small nuclear RNA activating complex, polypeptide 4) [SID363583992], the entry reads GFP, % of control 73.7; viability (ATP), % of control 76.2. After knock-down of Use1 (unconventional SNARE in the ER 1 homolog (S. cerevisiae)) [SID363543653], the screen gave GFP, % of control 71.5; viability (ATP), % of control 54. After knock-down of Use1 (unconventional SNARE in the ER 1 homolog (S. cerevisiae)) [SID363553146], the record shows GFP, % of control 74.5; viability (ATP), % of control 29.1. For Use1 (unconventional SNARE in the ER 1 homolog (S. cerevisiae)) [SID363558994] the deposit lists GFP, % of control 103; viability (ATP), % of control 72.9.

Against Bhlhe23 (basic helix-loop-helix family, member e23) [SID363555268] the deposit lists GFP, % of control 51.7; viability (ATP), % of control 65.8. Knock-down of Bhlhe23 (basic helix-loop-helix family, member e23) [SID363563929] resulted in: GFP, % of control 95.9; viability (ATP), % of control 65.7. Knock-down of Bhlhe23 (basic helix-loop-helix family, member e23) [SID363587475] came out at: GFP, % of control 97.6; viability (ATP), % of control 103.

Copied from the entries so far (2 entries):
Use1 (unconventional SNARE in the ER 1 homolog (S. cerevisiae)) [SID363543653] → GFP, % of control: 71.5; viability (ATP), % of control: 54
Use1 (unconventional SNARE in the ER 1 homolog (S. cerevisiae)) [SID363553146] → GFP, % of control: 74.5; viability (ATP), % of control: 29.1

The list goes on.
Against Dlgap5 (DLG associated protein 5) [SID363539502], the values are GFP, % of control 57; viability (ATP), % of control 81. Dlgap5 (DLG associated protein 5) [SID363560803] scored GFP, % of control 92.6; viability (ATP), % of control 91.6. After knock-down of Dlgap5 (DLG associated protein 5) [SID363564893], the screen gave GFP, % of control 85.9; viability (ATP), % of control 76. After knock-down of Sys1 [SID363543734] the results were GFP, % of control 113; viability (ATP), % of control 77.9. For Sys1 [SID363551470], the values are GFP, % of control 85.8; viability (ATP), % of control 64.8. Knock-down of Sys1 [SID363559075] resulted in: GFP, % of control 76.8; viability (ATP), % of control 68.7.

With knock-down of Nudt13 (nudix hydrolase 13) [SID363562403], the screen gave GFP, % of control 48.1; viability (ATP), % of control 59.1. Nudt13 (nudix hydrolase 13) [SID363567541] showed GFP, % of control 51.7; viability (ATP), % of control 90.8. For Nudt13 (nudix hydrolase 13) [SID363584898], the entry reads GFP, % of control 96; viability (ATP), % of control 44. Pitpnm3 (PITPNM family member 3) [SID363570279] gave GFP, % of control 98.4; viability (ATP), % of control 122. After knock-down of Pitpnm3 (PITPNM family member 3) [SID363576615], the screen gave GFP, % of control 72.8; viability (ATP), % of control 73.1. Knock-down of Pitpnm3 (PITPNM family member 3) [SID363579783] resulted in: GFP, % of control 61.8; viability (ATP), % of control 68.8.

Against Slc5a12 [SID363547623], the values are GFP, % of control 39; viability (ATP), % of control 80.8. Slc5a12 [SID363558392] scored GFP, % of control 49.9; viability (ATP), % of control 81.9. After knock-down of Slc5a12 [SID363560150], the screen gave GFP, % of control 87.4; viability (ATP), % of control 76.8. With knock-down of Dmrt2 (doublesex and mab-3 related transcription factor 2) [SID363545891], the screen gave GFP, % of control 43.3; viability (ATP), % of control 40. After knock-down of Dmrt2 (doublesex and mab-3 related transcription factor 2) [SID363549404], the screen gave GFP, % of control 66.7; viability (ATP), % of control 84.5. Dmrt2 (doublesex and mab-3 related transcription factor 2) [SID363563210] gave GFP, % of control 68.7; viability (ATP), % of control 81.7.
